Laboratory results published in paper PMC6461802, “Coupling of ssRNA cleavage with DNase activity in type III-A CRISPR-Csm revealed by cryo-EM and biochemistry” (Cell Research, 2019).
Numbering of substitutions follows the chain as printed. These are yes or no findings as the source states them, for the method shown. A result given as binding can be weak or reduced; the word gives no strength.

Tests used:
[1] = biological target: T1, Csm3 of the Streptococcus thermophilus type III-A Csm complex (wild type, apo state) (Streptococcus thermophilus DGCC8004); experiment: cryo-EM structure; apo state: StCsm complex with 40 nt crRNA, wild-type Csm3; big (3.4 Å) and small (3.3 Å) particle populations; ~0.4 mg/mL, buffer 10 mM Tris-HCl pH 8.0, 150 mM NaCl, 3 mM DTT; both purified
T1 sequence: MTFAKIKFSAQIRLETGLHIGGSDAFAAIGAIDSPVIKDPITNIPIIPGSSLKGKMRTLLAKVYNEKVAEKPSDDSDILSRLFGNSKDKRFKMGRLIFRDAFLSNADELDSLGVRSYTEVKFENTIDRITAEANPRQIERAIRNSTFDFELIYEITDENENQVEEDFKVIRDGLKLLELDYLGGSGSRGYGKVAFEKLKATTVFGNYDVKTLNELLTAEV

[2] = biological target: T2, Csm3 D33A of the Streptococcus thermophilus type III-A Csm complex (target ssRNA-bound state) (Streptococcus thermophilus DGCC8004); experiment: cryo-EM structure; target ssRNA-bound state: StCsm complex with 40 nt crRNA and 49 nt target ssRNA, Csm3 D33A; big (3.4 Å) and small (3.5 Å) particle populations; ~0.4 mg/mL, buffer 10 mM Tris-HCl pH 8.0, 150 mM NaCl, 3 mM DTT; both purified
T2 sequence: T1 sequence with D33A

binding [1]: binds | binding [2]: binds
Substance: Csm4 of the Streptococcus thermophilus type III-A Csm complex
